In PubChem BioAssay AID651640 (Broad Institute, 2012):
Hit rate of the full screen: of about 350,000 compounds, about 6,000 (1.7%) were called active. This list was built around the results that the source calls inconclusive (neither active nor inactive); the mix of calls is not that of the screen. No stated cut-off is given here; in the data, active means CPE inhibition above about 20% (passing the limit was not always enough); inconclusive means no clear call, values can overlap the other calls; tested in BHK-21 cells. More than one record can exist for a structure, and the calls need not agree.

Test: protection of cells from dengue 2 killing – plate reader, single concentration, primary screen (AID 651640);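 further: 0% = median of neutral control wells and 100% = median of positive control wells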
Settings: DENV2-infected cells, cytopathic effect rescue, at 9.99 µM, hits give high values

SMILES | CPE inhibition
CCOC(=O)N1CCc2c(sc(NC(=O)c3ccc(S(=O)(=O)N4CCCC4)cc3)c2C#N)C1 | inactive: 16.9%
C[C@H](CO)N1C[C@H](C)[C@H](CN(C)C(=O)Nc2ccccc2F)Oc2ncc(C#CCN(C)C)cc2C1=O | active: 72.3%
C[C@H](CO)N1C[C@H](C)[C@@H](CN(C)S(=O)(=O)c2ccccc2)Oc2ncc(C#CC3(O)CCCC3)cc2C1=O | inconclusive: 53.6%
COc1ccccc1-c1sc2cc3c(cc2c1C#CCO)OCO3 | inconclusive: 35.7%
C[C@@H]1CCCCO[C@@H](CN(C)S(=O)(=O)c2cccs2)[C@H](C)CN([C@H](C)CO)C(=O)c2cc(NC(=O)Nc3cccc4ccccc34)ccc2O1 | inconclusive: 31.7%
COc1ccc(S(=O)(=O)N[C@@H]2C=C[C@@H](CC(=O)NCCc3ccccc3)O[C@@H]2CO)cc1 | active: 39%
OC(c1ccccc1)(c1ccccc1)C1CCN(CCCOc2ccc(C(F)(F)F)cc2)CC1 | inconclusive: 23.4%
O=C(C1CCCC1)N1C[C@H]2[C@@H](c3ccccc31)[C@@H](CO)N2C(=O)c1ccccc1 | active: 50.8%
COc1ccc2ccccc2c1-c1sc(Nc2ccccc2)n[n+]1-c1ccc(F)cc1 | active: 51.5%
COc1ccccc1CNC(=O)C[C@@H]1CC[C@@H]2[C@H](COC[C@@H](O)CN2C(=O)Nc2ccc(Cl)cc2)O1 | inactive: -1.17%
O=C(NCCCN1CCOCC1)C(=O)NCc1ccccc1 | inconclusive: 28.6%
CCOc1ccc(OCC(O)CN2CCN(S(=O)(=O)c3cccc(C(F)(F)F)c3)CC2)cc1 (centres undefined) | inconclusive: 25.8%
COc1cc(C#N)ccc1OC(=O)c1cccc(S(=O)(=O)N2CCN(C)CC2)c1 | inconclusive: 24.5%
CCC(=O)N1CCc2cc(Br)cc(S(=O)(=O)N3CCC(C(=O)NC(C)(C)C)CC3)c21 | inconclusive: 20.9%
O=C(NCc1ccccc1Cl)[C@H]1CCCN1C(=O)[C@H]1CCCN1C(=O)c1cccc2ccccc12 | inconclusive: 112%
C[C@@H]1CCCCO[C@@H](CN(C)C)[C@H](C)CN([C@@H](C)CO)C(=O)c2cc(NC(=O)CCC(F)(F)F)ccc2O1 | inconclusive: 77.3%
COc1ccc(C(=O)Nc2ccc3nc4n(c(=O)c3c2)CCCCC4)cc1OC | inconclusive: 21.5%
Cc1onc(-c2c(F)cccc2Cl)c1C(=O)NCCc1ccncc1 | inconclusive: 58.6%
CCCN(CC(=O)Nc1ccccc1C)C(=O)C1CC(=O)N(c2cccc(C)c2C)C1 (centres undefined) | inconclusive: 24.5%
O=C(C[C@@H]1CC[C@H]2[C@@H](COC[C@@H](O)CN2Cc2ccc3c(c2)OCO3)O1)N1CCOCC1 | active: 29.8%
CC(C)NC(=O)N(C)C[C@H]1Oc2ncc(-c3ccccc3F)cc2C(=O)N([C@@H](C)CO)C[C@@H]1C | inactive: -8.68%
NC(=O)C1CCN(C(=O)CCSCc2ccccc2)CC1 | inconclusive: 28.9%
CCOC(=O)c1cc(-c2ccccc2C)nn1Cc1cc(C)no1 | active: 32%
COc1ccccc1CNC(=O)C[C@H]1CC[C@@H]2[C@H](COC[C@H](O)CN2C(=O)Nc2ccc(C(F)(F)F)cc2)O1 | inconclusive: 22%
COc1cc2c(cc1OC)[C@@]1(c3ccccc3)CCCC[C@H]1[C@@H]2NC(=O)C(F)(F)F | active: 20.3%

SMILES | CPE inhibition
COc1ccc(OC)c(NC(=O)c2cccc(NC(=O)c3ccco3)c2)c1 | inconclusive: 25.8%
CO[C@H]1CN(C)C(=O)c2ccc(NC(=O)NC(C)C)cc2OC[C@H](C)NC[C@@H]1C | active: 29.6%
C/C=C/c1ccc(C2[C@H]3CNC[C@@H]2N3S(=O)(=O)c2ccccc2C)cc1 (some centres undefined) | active: 20.4%
Cc1ccc(-c2nc(C)c(C(=O)O)s2)cc1 | inactive: 7.09%
FC(F)(F)c1ccccc1CN1CCCc2nc(-c3ccc(Br)cc3)ccc21 | active: 42.1%
COc1ccc2c3c(n(C)c2c1)[C@@H](CO)N(C(=O)C1CCCCC1)CC31CCN(C(=O)c2ccncc2)CC1 | active: 42.3%
N#Cc1ccc(OCC(=O)Nc2nc(-c3cccnc3)cs2)cc1 | inconclusive: 35.5%
CC(C)NC(=O)N1Cc2cc(C(=O)NC3CCCC3)nc(-c3cccc(-c4cccnc4)c3)c2[C@@H]1CCO | inconclusive: 36.3%
O=C(Nc1cccc(S(=O)(=O)N2CCOCC2)c1)c1ccc(=O)[nH]c1 | inconclusive: 25.6%
C[C@@H]1CN([C@H](C)CO)C(=O)CCCn2cc(nn2)CO[C@@H]1CN(C)S(=O)(=O)c1ccc(C#N)cc1 | inconclusive: 74.9%
CCCCCCCCN1C(=O)[C@@H](CC(=O)NCc2cccc(C(F)(F)F)c2)C[C@@]2(C(=O)OC)C1=C[C@H](C(C)(C)C)O[C@@H]2C | inactive: 5.01%
CCC1(CC)C(=O)C2=C3C1[C@H](C(=O)OC)C=C(C(=O)OC)C[C@H]3[C@H]1C(=O)N(CC(=O)OC)C(=O)[C@H]1[C@H]2C (some centres undefined) | inconclusive: 31.2%
O=C(CCN1C(=O)/C(=C/c2ccccc2Cl)SC1=S)N1CCCC1 | inconclusive: 20.2%
CC(C)C#Cc1cnc2c(c1)C(=O)N([C@H](C)CO)C[C@H](C)[C@H](CN(C)C(=O)c1ccccc1F)O2 | inactive: 2.14%
COc1ccc(C)cc1N(CC(=O)N1CCCC1)S(=O)(=O)c1ccccc1 | inconclusive: 43.6%
COc1ccc(N(CN2C(=O)c3ccccc3C2=O)C(=O)COc2ccc(Cl)cc2Cl)cc1 | inconclusive: 23.9%
O=C(c1cccnc1)N1C[C@H]2[C@@H](c3ccccc31)[C@@H](CO)N2Cc1ccc2c(c1)OCO2 | active: 25.6%
S=C1NCN(CC2CC2)CN1 | inconclusive: 59.8%
Cc1ccc(N(Cc2ccccc2)C(=O)c2ccc(C)c(S(=O)(=O)N3CCOCC3)c2)cc1 | inconclusive: 38.7%
O=C(C[C@H]1CC[C@H](NC(=O)c2ccc(F)cc2)[C@@H](CO)O1)NCCc1ccccc1 | inactive: -4.29%
NC(=O)c1cc2cc(Cl)ccc2o/c1=N/NC(=O)c1cccs1 | inactive: 3.86%
CCC(=O)Nc1c(OC(=O)CC)ccc2c(C)cc(=O)oc12 | inconclusive: 35.3%
O=C(CSc1n[nH]c(-c2ccccc2)n1)NCc1cccc(C(=O)O)c1 | inactive: 0.0215%
CC1CCN(C(=O)COc2ccc3ccccc3c2Br)CC1 | inconclusive: 36.6%
O=C(COC(=O)c1cccc(Br)c1)Nc1ccc2[nH]c(=O)[nH]c2c1 | active: 72.7%

SMILES | CPE inhibition
CO[C@H]1CN(C)C(=O)c2cc(NC(=O)C3CCCC3)ccc2OC[C@H](C)N(CCC(F)(F)F)C[C@@H]1C | inconclusive: 28.3%
COc1ccc(CN2CCNC(=O)C2CC(=O)NCC2CCOCC2)c(C)c1C (centres undefined) | active: 89.5%
O=C(c1cccc(F)c1)N1CC[C@@H]2[C@H](CO)Nc3ccc(-c4ccc(F)cc4)cc3[C@@H]21 | inactive: 15%
C[C@@H]1CN([C@@H](C)CO)S(=O)(=O)c2ccc(C#C[C@@H](C)O)cc2O[C@H]1CN(C)C(=O)c1ccncc1 | inactive: -1.54%
C[C@@H]1CCCCO[C@@H](CN(C)Cc2ccc(C(=O)O)cc2)[C@H](C)CN([C@H](C)CO)C(=O)c2cc(NC(=O)CCCN(C)C)ccc2O1 | inactive: -4.68%
O=C([C@H]1[C@H](CO)[C@H]2Cn3c(ccc(C4=CCCC4)c3=O)[C@@H]1N2C(=O)c1ccccc1)N1CCOCC1 | inconclusive: 37.6%
Cc1ccc(S(=O)(=O)NCC[C@@H]2CC[C@H](NC(=O)c3ccccn3)[C@@H](CO)O2)cc1 | inactive: 4.28%
CSCCC(NC(=O)COc1ccccc1)C(=O)OCCOc1ccc(C)cc1 (centres undefined) | active: 26.7%
O=C(Nc1ccccc1F)N[C@H]1CC[C@@H](CC(=O)N2CCCCC2)O[C@@H]1CO | inconclusive: 31.2%
CCOC(=O)N1CCN(C(=O)COc2ccccc2[N+](=O)[O-])CC1 | inactive: -0.281%
Cc1ccc(C(=O)NC2CCCCN(C)C2=O)cc1 (centres undefined) | inactive: 13.7%
O=C1CN(S(=O)(=O)c2ccccc2)C[C@@H]2[C@H](c3ccc(C4=CCCC4)cc3)[C@@H](CO)N12 | inconclusive: 41.4%
CC(C)C[C@H]1CNC(=O)C(=O)N1C[C@@H]1CCCN1C[C@H](Cc1ccccc1)N1C[C@H](CC(C)C)N(CC2CCCCC2)C(=O)C1=O | inconclusive: 29.3%
CCCCCCCCCCCCCCCC[n+]1cccc2ccccc21 | inactive: -3.99%
O=C(NCC1CC1)c1cc(-c2ccccc2)nn1CC1CC(c2cccnc2)=NO1 (centres undefined) | inconclusive: 46.3%
c1ccc(Oc2ccccn2)cc1 | inconclusive: 23.6%
Cc1cc(NC(=O)CSc2ccc(-c3cccc([N+](=O)[O-])c3)nn2)no1 | inactive: -3.83%
CCc1nc2ccc(C(=O)NCc3cccs3)cn2c1N(CC)Cc1cccc(Br)c1 | inconclusive: 24.1%
COc1ccc(S(=O)(=O)Nc2cccc3c2O[C@@H](CN(C)C(=O)Nc2ccc4c(c2)OCO4)[C@@H](C)CN([C@H](C)CO)C3=O)cc1 | active: 21.4%
CC(C)Oc1cc(F)ccc1-c1cc(C(=O)NCc2ccccn2)[nH]n1 | inconclusive: 58.3%
Cc1ccc(S(=O)(=O)N(C)C)cc1N | inconclusive: 39.4%
COc1ccc(S(=O)(=O)Nc2ccc3c(c2)C(=O)N([C@H](C)CO)C[C@@H](C)[C@H](CN(C)S(=O)(=O)c2ccc(F)cc2)O3)cc1 | active: 25.3%
COc1ccc(S(=O)(=O)N2CCN(C(=O)c3ccco3)CC2)c(C)c1C | inconclusive: 29.9%
CCOc1ccc(/C=N/N2CCN(Cc3ccccc3)CC2)cc1 | inconclusive: 43.4%
